Counter-ions that a name gives are not always drawn. Some of the results follow. The calls rarely recur for the same compound in another form.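 Kinases were expressed as nanoluciferase fusions in K562 cells and luminescence was read every 4 h between 2 and 18 h as percent of control, DMSO set to 100% and a positive control to 0%. A time point counts as decreased when the signal drops significantly (2 sigma). The hit call is the authors' own, does not follow from the count of time points alone, and its rule is not shown.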
biological target: EGFR_G719S_T790M (UniProt P00533); assay: kinase-Nluc reporter destabilization hit call (1 = scored as downregulated) (binary); higher = compound decreases kinase abundance; conditions: K562; 2-18 h

kinase-Nluc reporter destabilization hit call, inactive:
CC#CC(=O)N[C@H]1CCCN(c2c(F)cc(C(N)=O)c3[nH]c(C)c(C)c23)C1 [Branebrutinib] (10 µM) 0
O=C1NC(=NCc2cccs2)S/C1=C\c1ccc2ncccc2c1 (10 µM) 0
Cn1c(=O)n(-c2ccc(C(C)(C)C#N)cc2)c2c3cc(-c4cnc5ccccc5c4)ccc3ncc21 [Dactolisib (Tosylate)] (10 µM) 0
COC(=O)c1ccc2c(C(=Nc3ccc(N(C)C(=O)CN4CCN(C)CC4)cc3)c3ccccc3)c(O)[nH]c2c1 [Nintedanib] (2.5 µM) 0
COc1cc2ncnc(Nc3ccc(O)cc3)c2cc1OC (10 µM) 0
O=C(c1ccc(-c2ccc(Cl)cc2)o1)N(Cc1ccccn1)c1ccc(N2CCNCC2)cc1 [MK2-IN-1 (hydrochloride)] (10 µM) 0
CN1CCN(S(=O)(=O)c2ccc(-c3cnc(N)c(C(=O)Nc4cccnc4)n3)cc2)CC1 (10 µM) 0
CN(C)C[C@@H]1CCn2cc(c3ccccc32)C2=C(C(=O)NC2=O)c2cn(c3ccccc23)CCO1 [Ruboxistaurin (hydrochloride)] (10 µM) 0
COc1ccc(Oc2cc(NCCC(F)(F)F)c3ncc(-c4ccc(C(=O)NC5CC5)c(C)c4)n3n2)c(F)c1F (2.5 µM) 0
CCCCNc1ncc(-c2ccc(CN3CCOCC3)cn2)c(NC2CCC(O)CC2)n1 (centres undefined) (10 µM) 0
O=C(Nc1cc(C(F)(F)F)ccc1N1CCN(Cc2ccccn2)CC1)c1ccc(-c2ccncc2)o1 (10 µM) 0
CC(C)(/C=C(\C#N)C(=O)N1CCC[C@@H](n2nc(-c3ccc(Oc4ccccc4)cc3F)c3c(N)ncnc32)C1)N1CCN(C2COC2)CC1 (2.5 µM) 0
CNC(=O)c1cccc2cc(Oc3ccnc4cc(OCC5(N)CC5)c(OC)cc34)ccc12 [Lucitanib] (10 µM) 0
COc1cc(F)cc([C@@H](CO)NC(=O)[C@@H](C)N2Cc3ccc(-c4nc(NC5CCOCC5)ncc4Cl)cc3C2=O)c1 [ERK1/2 inhibitor 2] (10 µM) 0
O=c1cc(-c2ccccc2)oc2c(O)c(O)ccc12 [7,8-Dihydroxyflavone] (10 µM) 0
C=CC(=O)N1CC[C@H](n2nc(C#Cc3cc(OC)cc(OC)c3)c3c(N)ncnc32)C1 [Futibatinib] (10 µM) 0
O=C1Nc2ccccc2/C1=C/c1ccc(F)cc1 (10 µM) 0
CN(C)Cc1ccc(-c2cnn3c(-c4cccc(NC(=O)c5cccc(C(F)(F)F)c5)c4)ccnc23)cc1 (2.5 µM) 0
Cc1c[nH]c(/C=C2\C(=O)Nc3ccccc32)c1CCC(=O)O (10 µM) 0
CC(C)c1ccc2oc3nc(N)c(C(=O)O)cc3c(=O)c2c1 [Amlexanox] (10 µM) 0
NS(=O)(=O)c1ccc(Nc2nc(OCC3CCCCC3)c3[nH]cnc3n2)cc1 (10 µM) 0
Cn1nc(C(C)(C)C)cc1NC(=O)Nc1ccc(Oc2ccncc2)cc1 (10 µM) 0
COc1ccc(F)c(F)c1C(=O)c1cnc(NC2CCN(S(C)(=O)=O)CC2)nc1N (2.5 µM) 0
COc1cc(C(=O)NC2CCN(C)CC2)ccc1Nc1ncc2c(n1)N(C1CCCC1)CC(F)(F)C(=O)N2C (10 µM) 0
CCN1C(=O)N(c2c(F)c(OC)cc(OC)c2F)Cc2cnc3[nH]c(CN4CCOCC4)cc3c21 [Pemigatinib] (10 µM) 0
COc1cc(Oc2ccnc3cc(OC)c(OC)cc23)ccc1NC(=O)NC(C)c1nccs1 (centres undefined) (2.5 µM) 0
C=CC(=O)N1C[C@H](Nc2ncnc3[nH]ccc23)CC[C@@H]1C [Ritlecitinib] (10 µM) 0
CC(C)(C)S(=O)(=O)c1cc2c(Nc3ccc4scnc4c3)ncnc2cc1OCCO (2.5 µM) 0
O=C(NOC[C@H](O)CO)c1ccc(F)c(F)c1Nc1ccc(I)cc1F (2.5 µM) 0
Cc1cccc([C@@H](CO)NC(=O)[C@@H](C)N2Cc3ccc(-c4nc(NC5CCOCC5)ncc4Cl)cc3C2=O)c1 [ERK1/2 inhibitor 1] (10 µM) 0
CNC(=O)c1cc(Oc2ccc(NC(=O)Nc3cc(C(C)(C)C)nn3-c3ccc4ncccc4c3)c(F)c2)ccn1 [Rebastinib] (2.5 µM) 0
CCCn1cnc2c(NCc3ccccc3)nc(NC(CC)CO)nc21 (centres undefined) [Ca2+ channel agonist 1] (2.5 µM) 0
Brc1c(Br)c(Br)c2n[nH]nc2c1Br (10 µM) 0
C=CC(=O)Nc1cccc(Nc2nc(Nc3ccc(OCCOC)cc3)ncc2F)c1 [Spebrutinib] (10 µM) 0
CC(C)=CC/C=C(\C)[C@H]1CC[C@]2(C)[C@@H]1[C@H](O)C[C@@H]1[C@@]3(C)CC[C@H](O[C@@H]4O[C@H](CO)[C@@H](O)[C@H](O)[C@H]4O[C@@H]4O[C@H](CO)[C@@H](O)[C@H](O)[C@H]4O)C(C)(C)[C@@H]3CC[C@]12C [Ginsenoside Rg5] (10 µM) 0
Cc1ncc(-c2ccnc(Nc3ccc(S(C)(=O)=O)cc3)n2)n1C(C)C (2.5 µM) 0
CN(C)CCOc1ccc(-c2nc(-c3ccncc3)c(-c3ccc4c(c3)CC/C4=N\O)[nH]2)cc1 (10 µM) 0
CCN(CCCOc1ccc2c(Nc3cc(CC(=O)Nc4cccc(F)c4)[nH]n3)ncnc2c1)CCOP(=O)(O)O [Barasertib] (10 µM) 0
C=CC(=O)N[C@H]1COC[C@H]1Nc1ncc2cc(-c3c(Cl)c(OC)cc(OC)c3Cl)c(=O)n(C)c2n1 (10 µM) 0

Of the compounds above, these contain a furan ring, fused or not.
kinase-Nluc reporter destabilization hit call, inactive:
O=C(c1ccc(-c2ccc(Cl)cc2)o1)N(Cc1ccccn1)c1ccc(N2CCNCC2)cc1 [MK2-IN-1 (hydrochloride)] (10 µM) 0
O=C(Nc1cc(C(F)(F)F)ccc1N1CCN(Cc2ccccn2)CC1)c1ccc(-c2ccncc2)o1 (10 µM) 0
